Data taken from PubChem BioAssay AID588590 (National Center for Advancing Translational Sciences (NCATS), 2011).
In all, about 390,000 compounds went through this assay and about 4,000 (1%) were called active. The inconclusive results got no clear call from the source; some entries with a clear call stand among them for comparison. Calls follow the shape of the dose curve; as a rule, active = well fitted inhibition curve with a large enough effect; inconclusive = small, poorly fitted or top-dose-only effect, or another doubt; inactive = no such curve, though single readings can be large or run the other way. Where the call is inconclusive, the potency comes from a doubtful curve fit.
Potency is read from the fitted curve at half-maximal effect.

Chains of the proteins cited; added tags and fusions are not shown. Lines headed by an entry give the natural chain unless they say otherwise; changes in a name come on top.
UniProt Q9UNA4: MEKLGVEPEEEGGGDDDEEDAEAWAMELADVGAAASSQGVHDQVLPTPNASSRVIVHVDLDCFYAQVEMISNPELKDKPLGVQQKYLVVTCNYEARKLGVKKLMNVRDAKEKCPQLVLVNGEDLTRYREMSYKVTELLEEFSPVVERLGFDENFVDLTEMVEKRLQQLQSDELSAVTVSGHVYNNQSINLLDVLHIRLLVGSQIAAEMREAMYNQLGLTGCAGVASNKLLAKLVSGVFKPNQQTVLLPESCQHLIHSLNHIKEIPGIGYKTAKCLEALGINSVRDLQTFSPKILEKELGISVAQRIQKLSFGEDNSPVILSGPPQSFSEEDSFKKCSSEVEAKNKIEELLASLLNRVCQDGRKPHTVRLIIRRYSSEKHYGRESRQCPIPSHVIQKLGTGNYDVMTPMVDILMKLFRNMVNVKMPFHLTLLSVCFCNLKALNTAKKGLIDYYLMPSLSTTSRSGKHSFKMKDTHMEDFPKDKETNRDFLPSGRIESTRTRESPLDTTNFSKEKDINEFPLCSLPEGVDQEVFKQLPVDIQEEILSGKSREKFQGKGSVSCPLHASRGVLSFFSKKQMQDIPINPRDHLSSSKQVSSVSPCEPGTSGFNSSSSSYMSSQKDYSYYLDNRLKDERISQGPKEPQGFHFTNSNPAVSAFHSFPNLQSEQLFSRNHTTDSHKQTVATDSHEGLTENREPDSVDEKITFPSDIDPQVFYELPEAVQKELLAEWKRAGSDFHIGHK

Each molecule was assayed against DNA polymerase iota (Homo sapiens) (UniProt Q9UNA4) (assay: qHTS for Inhibitors of Polymerase Iota). Details: Pol iota fluorescent replication assay, 10 min; series mostly up to 115 µM; activity, negative = inhibition: at the top concentration.
Method in brief: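 Pol iota at 10 nM preincubated 15 min with compounds at room temperature; reaction started with fluorescent substrate, 50 nM final. Fluorescence read kinetically at 0 and 10 min; buffer-only wells as negative control.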
For `O=C(/C=C/c1ccccc1)/C=C/c1ccccc1`, the Potency was inconclusive: 31.6 µM [inhibitor, partial curve, poor fit].
In the case of `NCCCn1c(C(=O)c2cc(Cl)c(N)c(Cl)c2)c2ccc(C(F)(F)F)cc2[n+]1[O-]`, the Potency is reported as inconclusive: 35.5 µM [inhibitor, partial curve, poor fit].
With `Cc1[nH]n(C(C)(C)C)c(=O)c1Sc1ccccc1` the Potency was inconclusive: 17.8 µM [inhibitor, partial curve, poor fit].
With `CC1CCC(CN2CCN=C2N(C)C)CC1` (stereo not given) the Potency was inconclusive: 28.2 µM [inhibitor, single point].
`O=[N+]([O-])c1ccc(C2=CSC3=NCCN23)cc1` was tested, and the Potency was inconclusive: 44.7 µM [inhibitor, partial curve, poor fit].
With `Cn1c(=O)c2c(nc(NCCCCO)n2Cc2ccccc2Cl)n(C)c1=O` the “activity, negative = inhibition” value was inactive: 34.8%.
For `O=C(O)c1cc([N+](=O)[O-])c(Sc2nc3ccccc3[nH]2)c([N+](=O)[O-])c1`, the Potency was inconclusive: 2.82 µM [inhibitor, single point].
For `Cc1ccc(-c2[nH]ncc2/C=N/n2c(C)nc3ccccc3c2=O)cc1`, the Potency was inconclusive: 28.2 µM [inhibitor, full curve].
For `COc1cccc(C2CC(c3ccc(NS(C)(=O)=O)cc3)=NN2C(=O)c2ccccc2)c1OC` (stereo not given), the Potency was active: 89.1 µM.
With `O=C(CN1C(=O)N/C(=C\c2ccccc2OCc2ccc(C(=O)O)cc2)C1=O)Nc1ccc(F)cc1` the Potency was inconclusive: 17.8 µM [inhibitor, full curve, poor fit].
`CC(=O)Nc1cc(C(=O)NCc2ccc(F)cc2)ccc1S(=O)(=O)c1ccc(C)cc1` was tested, and the Potency was inconclusive: 100 µM [inhibitor, partial curve, poor fit].
With `O=C(CSc1nc2ccccc2s1)NC(=O)NCc1ccco1` the “activity, negative = inhibition” value was inactive: -13.3%.
For `Cc1cc(NS(=O)(=O)c2ccc(NC(=O)/C=C/c3ccc(C)o3)cc2)nc(C)n1`, the “activity, negative = inhibition” value was inactive: -66.7%.
`CCc1cccc2c(C(=O)COC(=O)c3ccc([N+](=O)[O-])s3)c[nH]c12` was tested, and the Potency was inconclusive: 89.1 µM [inhibitor, single point].
`O=C(O)CNC(=O)c1ccc(Oc2c(F)c(F)c(Oc3ccc(C(=O)NCC(=O)O)cc3)c(F)c2F)cc1` was tested, and the Potency was inconclusive: 25.1 µM [inhibitor, full curve, poor fit].
`Cc1ccc(C)c(N(C)C(=O)c2cc3c(s2)-c2ccccc2OC3)c1` was tested, and the Potency was inconclusive: 100 µM [inhibitor, single point].
For `Cc1cc(-c2ccccc2)nc(=O)[nH]1`, the Potency was inconclusive: 22.4 µM [inhibitor, partial curve].
With `COc1ccc(CNC(=O)C2CCN(S(=O)(=O)c3ccc4c(c3)C(C)(C)C(=O)N4C)CC2)cc1` the Potency was inconclusive: 39.8 µM [inhibitor, single point].
`CCOc1ccc(N(C)S(=O)(=O)c2cc(-c3cc(C)no3)ccc2OC)cc1` was tested, and the Potency was inconclusive: 11.2 µM [inhibitor, partial curve, poor fit].
With `COc1ccc(OC)c(C(c2nnnn2C2CCCC2)N2CCN(c3ccccc3)CC2)c1` (stereo not given) the Potency was inconclusive: 25.1 µM [inhibitor, full curve, poor fit].
With `Cc1onc(-c2ccccc2)c1C(=O)Nc1ncc([N+](=O)[O-])s1` the Potency was inconclusive: 31.6 µM [inhibitor, single point].
`COc1ccc(C(=O)Nc2nc(-c3ccc([N+](=O)[O-])cc3)c(-c3ccc(OC)cc3)s2)cc1` was tested, and the “activity, negative = inhibition” value was inactive: -5.82%.
For `COc1ccc(N(Cc2cc(=O)[nH]c3ccccc23)C(=O)c2ccco2)cc1`, the Potency was inconclusive: 28.2 µM [inhibitor, full curve, poor fit].
In the case of `O=C(COc1ccc(S(=O)(=O)N2CCCC2)cc1)N1CCN(c2ccccc2F)CC1`, the Potency is reported as inconclusive: 56.2 µM [inhibitor, partial curve].
In the case of `CC(O)(P(=O)(O)O)P(=O)(O)O`, the Potency is reported as inconclusive: 20 µM [inhibitor, partial curve].
In the case of `NC(=O)[C@H]1CC2(CC(c3cccc(NC(=O)[C@H]4CCC(=O)N4)c3)=NO2)CN1C(=O)c1cc([N+](=O)[O-])cc([N+](=O)[O-])c1` (stereo not given in full), the Potency is reported as inconclusive: 31.6 µM [inhibitor, partial curve, poor fit].
`O=C(O)CCc1ccc(-c2ccc(Cl)cc2)n1CC(=O)Nc1ccccc1` was tested, and the Potency was inconclusive: 0.891 µM [inhibitor, full curve, poor fit].
`Cc1ccc(NC(=O)CSc2ncc(S(=O)(=O)c3ccc(C(C)C)cc3)c(=O)[nH]2)cc1C` was tested, and the Potency was inconclusive: 15.8 µM [inhibitor, full curve, poor fit].
`CC(C)Oc1ccc(CNS(=O)(=O)c2ccc3c(c2)C(C)(C)C(=O)N3C)cc1` was tested, and the “activity, negative = inhibition” value was inactive: 3.24%.
`COC(=O)c1c(CSc2cccc(C)c2)noc1C(=O)NCc1ccco1` was tested, and the Potency was inconclusive: 56.2 µM [inhibitor, partial curve, poor fit].
`CCCCn1c(SCc2ccc(C(=O)OC)o2)nc2cc(S(N)(=O)=O)ccc21` was tested, and the “activity, negative = inhibition” value was inactive: 4.35%.
For `COCCn1c(SCC(=O)Nc2cccc(NC(C)=O)c2)nc2c([nH]c3ccccc32)c1=O`, the Potency was inconclusive: 31.6 µM [inhibitor, full curve].
For `Cc1nn2c(=O)cc(COC(=O)c3cccc(NC(=O)COc4ccccc4Cl)c3)nc2s1`, the Potency was inconclusive: 79.4 µM [inhibitor, partial curve, poor fit].
`CCc1sc(-c2ccccc2)nc1C(=O)OC` was tested, and the Potency was inconclusive: 35.5 µM [inhibitor, single point].
With `COc1ccc(-c2[nH]ncc2CN2CCC(C(=O)c3ccc(F)cc3)CC2)cc1` the Potency was inconclusive: 39.8 µM [inhibitor, single point].
With `COC(=O)c1ccc(N2NC(=O)/C(=C/c3cc(OC)c(OC)c(OC)c3)C2=O)cc1` the Potency was inconclusive: 22.4 µM [inhibitor, partial curve, poor fit].
`O=C(Nc1cccc(-c2nn[nH]n2)c1)c1csc2c1CCCC2` was tested, and the Potency was inconclusive: 39.8 µM [inhibitor, single point].
For `COc1cc(C(=O)OCC(=O)N2CCCC2=O)cc(OC)c1C`, the Potency was inconclusive: 56.2 µM [inhibitor, partial curve, poor fit].
In the case of `CC1(c2ccc3c(c2)OCCO3)NC(=O)N(CC(=O)Nc2ccccc2)C1=O` (stereo not given), the “activity, negative = inhibition” value is reported as inactive: -3.09%.
For `CC1(C)Cc2c(c(N3CCOCC3)nc3snc(N)c23)CO1`, the Potency was inconclusive: 11.2 µM [inhibitor, partial curve, poor fit].
With `CSC1=NSC2=NC(=O)/C(=C\c3cccs3)C(=N)N12` the “activity, negative = inhibition” value was inactive: 23.8%.
With `O=C(NCc1ccco1)c1ccc(=O)[nH]n1` the Potency was inconclusive: 112 µM [inhibitor, partial curve, poor fit].
In the case of `CCOC(=O)C1=C(C)N=c2s/c(=C/c3ccc(OCC(=O)O)cc3)c(=O)n2C1c1cc(OC)c(OC)c(OC)c1` (stereo not given), the “activity, negative = inhibition” value is reported as inactive: 67.5%.
`O=C(NCCN1CCOCC1)c1cccc2c1C(=O)c1ccc(N3CCCC3)cc1S2(=O)=O` was tested, and the Potency was inconclusive: 39.8 µM [inhibitor, single point].
In the case of `Cc1ccc(C(=O)NC(CCc2ccccc2)C(=O)O)cc1` (stereo not given), the Potency is reported as inconclusive: 0.794 µM [inhibitor, partial curve, poor fit].
For `COC(=O)c1cc(C(=O)NNC(=O)c2ccc3c(c2)OCO3)cc([N+](=O)[O-])c1`, the Potency was inconclusive: 22.4 µM [inhibitor, partial curve, poor fit].
`CO/N=C(\CS(=O)(=O)Cc1ccc(OC)cc1)c1ccc(Cl)cc1` was tested, and the Potency was inconclusive: 89.1 µM [inhibitor, single point].
With `Cc1cc(C(=O)OCC(=O)NCc2ccco2)c(C)n1-c1ccccc1` the Potency was active: 22.4 µM.
For `Cc1ccc2nc(-c3ccncc3)cc(C(=O)Nc3ccc(OC(F)F)cc3)c2c1`, the Potency was inconclusive: 35.5 µM [inhibitor, single point].
`NS(=O)(=O)c1ccc(Nc2ccc3cc(S(=O)(=O)N4CCCCC4)ccc3n2)cc1` was tested, and the Potency was inconclusive: 50.1 µM [inhibitor, partial curve].
In the case of `COc1ccc(C(=O)NCc2ccc(C(=O)O)o2)cc1`, the Potency is reported as inconclusive: 100 µM [inhibitor, single point].
In the case of `CCOc1ccccc1NC(=O)CN(c1ccc(C)cc1)S(=O)(=O)c1c(C)noc1C`, the Potency is reported as inconclusive: 11.2 µM [inhibitor, single point].
`Cc1ccc(Nc2c(-c3ccc(Cl)cc3)nc3sccn23)c(C)c1` was tested, and the Potency was inconclusive: 79.4 µM [inhibitor, single point].
`CCCCc1ccc(-n2nnnc2SCC(=O)Nc2cc(OC)c([N+](=O)[O-])cc2C)cc1` was tested, and the Potency was inconclusive: 89.1 µM [inhibitor, single point].
With `CCOc1ccc(C2=Nn3c(nnc3-c3ccc(OC)cc3)SC2)cc1` the Potency was inconclusive: 20 µM [inhibitor, partial curve, poor fit].
With `O=C(CN1C(=O)NC2(CCCCCC2)C1=O)Nc1ccc(Cl)c([N+](=O)[O-])c1` the Potency was inconclusive: 1 µM [inhibitor, full curve, poor fit].
For `CON(C)S(=O)(=O)c1ccc2c(c1)NC(=O)C1CCCN21` (stereo not given), the Potency was active: 22.4 µM.
For `CC(=O)Nc1ccc(Nc2nc(Cl)nc(Nc3ccc(NC(C)=O)cc3)n2)cc1`, the Potency was inconclusive: 22.4 µM [inhibitor, single point].
In the case of `Cc1ccc(C2=NOC(=O)/C2=C\c2ccc(C)o2)cc1`, the Potency is reported as inconclusive: 12.6 µM [inhibitor, full curve, poor fit].
`Cc1c(O)ccc(C(=O)CN2C(=O)c3ccccc3C2=O)c1O` was tested, and the Potency was inconclusive: 39.8 µM [inhibitor, single point].
